These are yes or no findings as the source states them, for the method shown. Binding seen in cells or lysates may run through a third protein. Binding can be weak; no strength is given.

Results on 1 molecule are retold here after US20080187577A1 (University of Texas, published 2008).

Assay [1] deals with recombinant Annexin II. In words: co-immunoprecipitation in vitro (FIG. 4B).
The target of assay [2] is recombinant Annexin II. In words: in vitro co-immunoprecipitation, Western blot and coomassie blue (FIG. 4B). For orientation: In western blotting, separated proteins are transferred to a membrane and probed.

B1: full-length recombinant human PG1-80 (rhPG) (ligand)
chain: SWKPRSQQPDAPLGTGANRDLELPWLEQQGPASHHRRQLGPQGPPHLVADPSKKQGPWLEEEEEAYGWMDFGRRSAEDEN
notes: Expressed in E. coli from pET32 as a thioredoxin fusion and purified; also called recombinant human progastrin; progastrin
Take B1: the binding result in assay [1] and in assay [2] was “binds” throughout.
